Source: patent publication US20260035475A1
Positions count from the first letter of the chain named. Numbers in names are those of the source. No constants are given. Whether binding was seen depends on the method and setting. Some binding calls cover weakened binding; strength is not graded here.

Key:
[1] = target: cynomolgus TfR1 (cTfR1), recombinant, construct not stated (cynomolgus); assay: BLI: cTfR1 captured on biotinylated human holo-transferrin on streptavidin sensors, 15 nM Fab in solution
[2] = target: cynomolgus TfR1 (cTfR1), recombinant, construct not stated (cynomolgus); assay: BLI, 15 nM Fab on TfR1 captured by biotinylated holo-transferrin
[3] = target: human transferrin receptor 1 (hTfR1), recombinant, construct not stated (human) (UniProt P02786); assay: as above
[4] = target: human transferrin receptor 1 (hTfR1), recombinant, construct not stated (human) (UniProt P02786); assay: BLI: hTfR1 captured on biotinylated human holo-transferrin on streptavidin sensors, 15 nM Fab in solution
[5] = target: chimeric TfR1 consisting of human apical domain grafted on mouse TfR1 ectodomain (SEQ ID NO:76) (human/mouse chimera); assay: condition: about 650 ng/ml (last point, between 100 and 1000 on the log axis); indirect ELISA on coated h/m apical domain chimera; x axis printed 'TfR (ng/ml)' [C]
[6] = target: cynomolgus TfR1 (cTfR1), recombinant, construct not stated (cynomolgus); assay: BLI, IgG captured from hybridoma supernatant, 250 nM cTfR1 in solution
[7] = target: human transferrin receptor 1 (hTfR1), recombinant, construct not stated (human) (UniProt P02786); assay: BLI (Octet): IgG captured from crude hybridoma supernatant on anti-mouse capture sensors, 250 nM hTfR1 in solution
[8] = target: chimeric TfR1 consisting of human helical domain grafted on mouse TfR1 ectodomain (SEQ ID NO:77) (human/mouse chimera); assay: condition: about 650 ng/ml (last point, between 100 and 1000 on the log axis); indirect ELISA on coated h/m helical domain chimera; x axis printed 'TfR (ng/ml)' [E]
[9] = target: cynomolgus TfR1 (cTfR1), recombinant, construct not stated (cynomolgus); assay: ELISA, hybridoma supernatant
[10] = target: human transferrin receptor 1 (hTfR1), recombinant, construct not stated (human) (UniProt P02786); assay: BLI, IgG captured from hybridoma supernatant, 250 nM hTfR1 in solution
[11] = target: chimeric TfR1 consisting of human helical domain grafted on mouse TfR1 ectodomain (SEQ ID NO:77) (human/mouse chimera); assay: ELISA, coated His-tagged antigen, mouse IgG dilution series
[12] = target: chimeric TfR1 consisting of human apical domain grafted on mouse TfR1 ectodomain (SEQ ID NO:76) (human/mouse chimera); assay: as above
[13] = target: mouse TfR1 (mTfR1), recombinant, construct not stated (mouse) (UniProt Q62351); assay: BLI, IgG captured from hybridoma supernatant, 500 nM mTfR1 in solution
[14] = target: mouse TfR1 (mTfR1), recombinant, construct not stated (mouse) (UniProt Q62351); assay: BLI (Octet): IgG captured from crude hybridoma supernatant on anti-mouse capture sensors, 500 nM mTfR1 in solution
[15] = target: cynomolgus TfR1 (cTfR1), recombinant, construct not stated (cynomolgus); assay: BLI, IgG captured from hybridoma supernatant, TfR1 in solution
[16] = target: human transferrin receptor 1 (hTfR1), recombinant, construct not stated (human) (UniProt P02786); assay: as above
[17] = target: mouse TfR1 (mTfR1), recombinant, construct not stated (mouse) (UniProt Q62351); assay: as above
[18] = target: cynomolgus TfR1 (cTfR1), recombinant, construct not stated (cynomolgus); assay: BLI (Octet): IgG captured from crude hybridoma supernatant on anti-mouse capture sensors, 250 nM cTfR1 in solution
[19] = target: hTfR1 with an N-terminal DYKDDDDK tag (Example 15) (human) (UniProt P02786); assay: SPR Biacore 8K, hTfR1 captured via N-terminal DYKDDDDK tag, scFv analyte (FIG. 26)
[20] = target: hTfR1 with an N-terminal DYKDDDDK tag (Example 15) (human) (UniProt P02786); assay: SPR (Biacore 8K), single-cycle kinetics: hTfR1 captured by its DYKDDDDK tag on an anti-tag antibody, scFv in five 3-fold steps up to 700 or 400 nM
[21] = target: cynomolgus TfR1 (cTfR1), recombinant, construct not stated (cynomolgus); assay: indirect ELISA on coated cTfR1 (coat not described in the text), Fab 1:3 dilutions [upper right]

B1: 24B4-Fab (Fab, V domains shown)
VH: EVQLQQFGAELVKPGTSVKISCKASGYTFTDYNMDWVKQGHGKGLEWIGDINPNYDTTSYSQKFKGKATLTVDKSSSTAYMELRSLTSEDTAVYYCARSEAGNYYWYFDVWGAGTTVTVSS
VL: DIVMSQSPSSLAVSVGEKVTMSCKSSQSLLYSSNRKNYLAWYRQKPGQSPKLLIYWASTRESGVPDRFTGSGSGTDFTLTISSVKAEDLAVYSCQQYYNYPYTFGGGTKLEIK
- binding [1]: binds
- binding [2]: binds
- binding [3]: binds
- binding [4]: binds

B2: 37D10-Fab (Fab, V domains shown)
VH: QVQLQQSGAELVRPGTSVKISCKASGYAFTNYWLGWVKQRPGHGLEWIGDIFPGSDNTYYNEKFKGKATLTADKSSSTAYMQLSSLASEDSAVYFCARSGNFYAMDYWGQGTSVTVSS
VL: ENVLTQSPAIMSASPGEKVTMTCSASSSVNYMNWYQQKSSTFPKLWIYDTSKLASGVPGRFSGSGSGKFYSLTISSMEAEDVATYYCFQGSGYPFTFGSGTKLEIK
- binding [1]: binds
- binding [2]: binds
- binding [3]: binds
- binding [4]: binds

B3: 37D10 (mouse monoclonal antibody) (antibody, V domains shown)
VH: B2 VH
VL: B2 VL
- binding [5]: no binding
- binding [6]: binds
- binding [7]: binds
- binding [8]: no binding
- binding [9]: binds
- binding [10]: binds
- binding [11]: no binding
- binding [12]: no binding
- binding [13]: binds
- binding [14]: binds
- binding [15]: binds
- binding [16]: binds
- binding [17]: binds
- binding [18]: binds

B4: h26D3-HC6_DS, VL-first scFv (scFv)
scFv: DIQMTQSPSSVSASVGDRVTITCKSSQSLLYSTNQKNYLAWYQQKPGKAPKLLIYWASTRESGVPSRFSGSGSGTDFTLTISSLQPEDFATYYCQQYFIYPRTFGCGTKVEIKGGGGSGGGGSGGGGSGGGGSEVQLVQSGAEVKKPGSSVKVSCKASGYIFTDYNMDWVRQAPGQCLEWIGDINPDADTTSYNEKFKGRATLTVDKSTSTAYMELSSLRSEDTAVYYCARGGYSGSSYYHPMDYWGQGTLVTVSS
- binding [19]: binds
- binding [20]: binds

B5: h26D3-LC1_DS, VL-first scFv (scFv)
scFv: B4 scFv with Y31A, A188Y
- binding [19]: binds
- binding [20]: binds

B6: h26D3-HC6, VL-first scFv (scFv)
scFv: DIQMTQSPSSVSASVGDRVTITCKSSQSLLYSTNQKNYLAWYQQKPGKAPKLLIYWASTRESGVPSRFSGSGSGTDFTLTISSLQPEDFATYYCQQYFIYPRTFGQGTKVEIKGGGGSGGGGSGGGGSEVQLVQSGAEVKKPGSSVKVSCKASGYIFTDYNMDWVRQAPGQGLEWIGDINPDADTTSYNEKFKGRATLTVDKSTSTAYMELSSLRSEDTAVYYCARGGYSGSSYYHPMDYWGQGTLVTVSS
- binding [19]: binds
- binding [20]: binds

B7: h26D3-HC6 scFv (scFv)
scFv: EVQLVQSGAEVKKPGSSVKVSCKASGYIFTDYNMDWVRQAPGQGLEWIGDINPDADTTSYNEKFKGRATLTVDKSTSTAYMELSSLRSEDTAVYYCARGGYSGSSYYHPMDYWGQGTLVTVSSGGGGSGGGGSGGGGSDIQMTQSPSSVSASVGDRVTITCKSSQSLLYSTNQKNYLAWYQQKPGKAPKLLIYWASTRESGVPSRFSGSGSGTDFTLTISSLQPEDFATYYCQQYFIYPRTFGQGTKVEIK
- binding [19]: binds
- binding [20]: binds

B8: h26D3-LC1 scFv (scFv)
scFv: B7 scFv with A55Y, Y169A
- binding [19]: binds
- binding [20]: binds

B9: h26D3-HC6_DS scFv (scFv)
scFv: B7 scFv with G44C, Q244C
- binding [19]: binds
- binding [20]: binds

B10: 26D3-Fab (murine) (Fab, V domains shown)
VH: EVQLQQFGVELVKPGASVKISCKASGYIFTDYNMDWVKQSHGKSLEWIGDINPDYDTTSYNEKFKGKATLTVDKSSSTAYMELRSLTSEDTAVYYCARGGYSGSSYYHPMDYWGQGTSVTVSS
VL: DIVMSQSPSSLAVSVGEKITMSCKSSQSLLYSTNQKNYLAWYQQKPGQSPELLIYWASTRESGVPDRFTGSGSGTDFTLTISNVRAEDLAVYYCQQYFIYPRTFGGGTKLEIK
- binding [1]: binds
- binding [2]: binds

B11: 26D3 (mouse monoclonal antibody) (antibody, V domains shown)
VH: B10 VH
VL: B10 VL
- binding [5]: no binding
- binding [6]: binds
- binding [9]: binds
- binding [12]: no binding
- binding [13]: binds
- binding [14]: binds
- binding [15]: binds
- binding [17]: binds
- binding [18]: binds

B12: h26D3 variant LC1 Fab (VL Y31A) (Fab, V domains shown)
VH: EVQLVQSGAEVKKPGSSVKVSCKASGYIFTDYNMDWVRQAPGQGLEWIGDINPDYDTTSYNEKFKGRATLTVDKSTSTAYMELSSLRSEDTAVYYCARGGYSGSSYYHPMDYWGQGTLVTVSS
VL: DIQMTQSPSSVSASVGDRVTITCKSSQSLLASTNQKNYLAWYQQKPGKAPKLLIYWASTRESGVPSRFSGSGSGTDFTLTISSLQPEDFATYYCQQYFIYPRTFGQGTKVEIK
- binding [21]: binds

B13: h26D3 variant HC3 Fab (VH D35A) (Fab, V domains shown)
VH: B12 VH with D35A
VL: B12 VL with A31Y
- binding [21]: binds

B14: h26D3-HC6/LC5 (Fab, V domains shown)
VH: B12 VH with Y55A
VL: B12 VL with A31Y, Y97A
- binding [21]: binds

B15: h26D3 variant LC5 Fab (VL Y97A) (Fab, V domains shown)
VH: B12 VH
VL: B12 VL with A31Y, Y97A
- binding [21]: binds

B16: h26D3 variant HC6 Fab (VH Y55A) (Fab, V domains shown)
VH: B12 VH with Y55A
VL: B12 VL with A31Y
- binding [21]: binds
